According to the supplement of paper PMC12823440, “Inhibitors supercharge kinase turnover through native proteolytic circuits” (Nature, 2025):
Where a name gives a salt, the structure may show the parent alone. The list shows a part of the results. The calls rarely recur for the same compound in another form.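 Kinases were expressed as nanoluciferase fusions in K562 cells and luminescence was read every 4 h between 2 and 18 h as percent of control, DMSO set to 100% and a positive control to 0%. A time point counts as decreased when the signal drops significantly (2 sigma). The hit call is the authors' own, does not follow from the count of time points alone, and its rule is not shown.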

By UniProt entry, the sequences of proteins in these tests, tags left out. Where a name states a change or a piece, a line headed by the entry shows the natural chain unless it says otherwise.
UniProt P36888, whole entry: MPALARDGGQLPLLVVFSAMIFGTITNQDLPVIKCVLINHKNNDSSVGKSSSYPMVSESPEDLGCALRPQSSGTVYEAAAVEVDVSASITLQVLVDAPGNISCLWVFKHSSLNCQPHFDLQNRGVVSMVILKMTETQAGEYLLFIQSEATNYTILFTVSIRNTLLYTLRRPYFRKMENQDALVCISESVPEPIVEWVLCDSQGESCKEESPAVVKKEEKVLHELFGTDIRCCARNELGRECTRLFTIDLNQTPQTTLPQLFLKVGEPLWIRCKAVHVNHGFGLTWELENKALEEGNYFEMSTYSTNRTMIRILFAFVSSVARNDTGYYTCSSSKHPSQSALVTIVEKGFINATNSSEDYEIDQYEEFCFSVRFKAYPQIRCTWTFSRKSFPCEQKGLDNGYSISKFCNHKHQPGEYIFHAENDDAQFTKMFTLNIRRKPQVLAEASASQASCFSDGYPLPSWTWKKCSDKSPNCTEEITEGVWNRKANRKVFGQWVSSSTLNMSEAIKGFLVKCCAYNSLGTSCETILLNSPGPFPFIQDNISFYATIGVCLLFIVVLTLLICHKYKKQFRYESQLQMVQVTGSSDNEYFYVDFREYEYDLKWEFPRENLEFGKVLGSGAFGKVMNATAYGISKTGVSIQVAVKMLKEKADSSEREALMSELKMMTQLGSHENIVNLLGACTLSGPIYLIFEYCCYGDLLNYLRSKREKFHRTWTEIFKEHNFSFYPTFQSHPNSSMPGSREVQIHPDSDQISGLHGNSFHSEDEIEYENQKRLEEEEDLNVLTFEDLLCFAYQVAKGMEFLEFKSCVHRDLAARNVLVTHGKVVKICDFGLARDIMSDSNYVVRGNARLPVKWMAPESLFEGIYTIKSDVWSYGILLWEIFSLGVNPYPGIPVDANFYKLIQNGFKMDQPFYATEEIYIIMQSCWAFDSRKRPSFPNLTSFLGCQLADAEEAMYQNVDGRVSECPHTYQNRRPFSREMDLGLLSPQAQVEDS
UniProt P49840: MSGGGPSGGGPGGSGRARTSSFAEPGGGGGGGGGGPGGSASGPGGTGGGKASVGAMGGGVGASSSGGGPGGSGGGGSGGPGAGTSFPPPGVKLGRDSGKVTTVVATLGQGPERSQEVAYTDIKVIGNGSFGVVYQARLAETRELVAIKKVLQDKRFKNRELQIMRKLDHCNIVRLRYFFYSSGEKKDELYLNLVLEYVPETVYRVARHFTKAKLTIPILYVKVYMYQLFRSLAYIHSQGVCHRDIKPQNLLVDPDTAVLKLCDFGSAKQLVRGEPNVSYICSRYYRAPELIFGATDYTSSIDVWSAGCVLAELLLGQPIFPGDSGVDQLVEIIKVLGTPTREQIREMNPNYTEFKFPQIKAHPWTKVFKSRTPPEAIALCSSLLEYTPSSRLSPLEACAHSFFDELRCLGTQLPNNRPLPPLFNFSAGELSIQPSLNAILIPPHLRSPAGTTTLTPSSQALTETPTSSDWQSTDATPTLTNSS
UniProt P06239: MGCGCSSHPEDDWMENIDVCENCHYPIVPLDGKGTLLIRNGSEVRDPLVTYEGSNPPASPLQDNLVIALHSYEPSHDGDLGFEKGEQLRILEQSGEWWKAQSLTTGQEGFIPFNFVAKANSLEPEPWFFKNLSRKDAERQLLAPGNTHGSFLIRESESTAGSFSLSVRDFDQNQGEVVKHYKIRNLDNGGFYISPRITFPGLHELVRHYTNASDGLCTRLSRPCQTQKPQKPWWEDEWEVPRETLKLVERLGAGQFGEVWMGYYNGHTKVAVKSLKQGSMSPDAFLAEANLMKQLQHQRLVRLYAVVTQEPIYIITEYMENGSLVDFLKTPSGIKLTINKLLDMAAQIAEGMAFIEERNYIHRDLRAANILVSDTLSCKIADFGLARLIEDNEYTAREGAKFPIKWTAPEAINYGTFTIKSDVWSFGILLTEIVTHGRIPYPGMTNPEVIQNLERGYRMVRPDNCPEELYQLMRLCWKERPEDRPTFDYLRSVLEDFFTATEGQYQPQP
UniProt P53667: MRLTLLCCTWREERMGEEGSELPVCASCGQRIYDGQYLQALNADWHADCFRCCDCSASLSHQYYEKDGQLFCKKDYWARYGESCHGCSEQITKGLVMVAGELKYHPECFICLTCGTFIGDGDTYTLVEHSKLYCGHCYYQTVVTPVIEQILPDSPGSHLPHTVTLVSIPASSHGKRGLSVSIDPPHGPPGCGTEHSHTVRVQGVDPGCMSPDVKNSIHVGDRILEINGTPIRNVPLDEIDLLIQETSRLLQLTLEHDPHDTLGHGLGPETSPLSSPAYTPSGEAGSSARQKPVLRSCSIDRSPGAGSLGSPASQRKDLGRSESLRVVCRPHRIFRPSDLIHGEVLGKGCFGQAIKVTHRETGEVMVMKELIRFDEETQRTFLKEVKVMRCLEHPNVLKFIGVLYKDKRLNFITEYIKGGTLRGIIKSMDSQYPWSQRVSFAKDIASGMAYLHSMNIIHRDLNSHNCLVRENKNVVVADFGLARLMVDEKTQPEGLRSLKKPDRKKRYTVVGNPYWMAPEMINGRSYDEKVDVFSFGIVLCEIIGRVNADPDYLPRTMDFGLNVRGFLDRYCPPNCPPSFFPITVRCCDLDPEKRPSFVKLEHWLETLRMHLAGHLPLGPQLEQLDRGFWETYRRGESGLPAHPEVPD
UniProt Q8IWU2: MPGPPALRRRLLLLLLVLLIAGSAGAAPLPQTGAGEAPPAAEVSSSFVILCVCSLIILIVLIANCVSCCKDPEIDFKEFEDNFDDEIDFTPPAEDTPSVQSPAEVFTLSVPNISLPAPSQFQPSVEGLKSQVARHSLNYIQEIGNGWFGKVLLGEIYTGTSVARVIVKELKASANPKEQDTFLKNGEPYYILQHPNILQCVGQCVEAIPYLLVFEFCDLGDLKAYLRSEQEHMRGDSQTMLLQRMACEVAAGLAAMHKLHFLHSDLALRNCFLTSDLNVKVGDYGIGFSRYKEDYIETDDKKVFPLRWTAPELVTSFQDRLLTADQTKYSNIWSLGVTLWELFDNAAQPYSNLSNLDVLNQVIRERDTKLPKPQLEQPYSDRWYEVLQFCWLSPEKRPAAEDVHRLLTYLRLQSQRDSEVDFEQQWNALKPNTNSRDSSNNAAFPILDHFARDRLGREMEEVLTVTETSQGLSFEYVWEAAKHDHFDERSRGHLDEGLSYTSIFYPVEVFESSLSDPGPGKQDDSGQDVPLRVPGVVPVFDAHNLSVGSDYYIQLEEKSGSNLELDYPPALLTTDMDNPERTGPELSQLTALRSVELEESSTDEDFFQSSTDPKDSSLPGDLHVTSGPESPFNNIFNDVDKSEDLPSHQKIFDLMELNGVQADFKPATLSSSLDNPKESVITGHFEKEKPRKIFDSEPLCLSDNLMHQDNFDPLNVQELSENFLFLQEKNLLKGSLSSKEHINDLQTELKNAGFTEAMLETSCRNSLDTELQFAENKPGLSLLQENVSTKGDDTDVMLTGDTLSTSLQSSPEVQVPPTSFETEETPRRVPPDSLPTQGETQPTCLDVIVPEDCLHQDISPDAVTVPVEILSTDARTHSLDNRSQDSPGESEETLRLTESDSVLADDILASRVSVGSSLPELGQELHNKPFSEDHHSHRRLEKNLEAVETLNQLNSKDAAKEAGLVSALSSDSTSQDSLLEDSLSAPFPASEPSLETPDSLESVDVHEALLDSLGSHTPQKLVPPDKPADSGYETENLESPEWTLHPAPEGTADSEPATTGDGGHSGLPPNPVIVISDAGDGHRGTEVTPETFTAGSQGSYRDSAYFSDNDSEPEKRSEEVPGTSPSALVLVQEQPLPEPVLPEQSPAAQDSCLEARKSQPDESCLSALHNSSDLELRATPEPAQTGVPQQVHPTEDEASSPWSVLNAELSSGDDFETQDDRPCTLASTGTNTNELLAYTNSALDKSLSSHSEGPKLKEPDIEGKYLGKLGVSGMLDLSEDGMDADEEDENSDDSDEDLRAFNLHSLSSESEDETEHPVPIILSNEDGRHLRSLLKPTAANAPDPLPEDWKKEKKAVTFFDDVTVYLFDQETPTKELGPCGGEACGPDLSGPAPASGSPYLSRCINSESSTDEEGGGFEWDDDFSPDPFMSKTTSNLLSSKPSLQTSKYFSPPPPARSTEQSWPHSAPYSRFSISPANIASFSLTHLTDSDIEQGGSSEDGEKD
UniProt P07948: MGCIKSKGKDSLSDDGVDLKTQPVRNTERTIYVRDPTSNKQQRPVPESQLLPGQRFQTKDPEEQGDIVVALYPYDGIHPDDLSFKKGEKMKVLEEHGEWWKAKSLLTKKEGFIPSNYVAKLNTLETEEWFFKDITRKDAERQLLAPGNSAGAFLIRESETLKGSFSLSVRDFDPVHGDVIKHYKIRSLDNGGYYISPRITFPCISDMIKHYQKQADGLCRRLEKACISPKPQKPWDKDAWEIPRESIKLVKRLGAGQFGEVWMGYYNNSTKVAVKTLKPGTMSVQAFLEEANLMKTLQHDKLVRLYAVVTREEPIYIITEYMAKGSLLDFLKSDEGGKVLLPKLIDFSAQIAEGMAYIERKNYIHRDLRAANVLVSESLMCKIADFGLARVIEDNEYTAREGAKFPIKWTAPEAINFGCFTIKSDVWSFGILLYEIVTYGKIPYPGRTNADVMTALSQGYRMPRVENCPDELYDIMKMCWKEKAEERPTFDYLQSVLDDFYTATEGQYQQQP
UniProt P31152, whole entry: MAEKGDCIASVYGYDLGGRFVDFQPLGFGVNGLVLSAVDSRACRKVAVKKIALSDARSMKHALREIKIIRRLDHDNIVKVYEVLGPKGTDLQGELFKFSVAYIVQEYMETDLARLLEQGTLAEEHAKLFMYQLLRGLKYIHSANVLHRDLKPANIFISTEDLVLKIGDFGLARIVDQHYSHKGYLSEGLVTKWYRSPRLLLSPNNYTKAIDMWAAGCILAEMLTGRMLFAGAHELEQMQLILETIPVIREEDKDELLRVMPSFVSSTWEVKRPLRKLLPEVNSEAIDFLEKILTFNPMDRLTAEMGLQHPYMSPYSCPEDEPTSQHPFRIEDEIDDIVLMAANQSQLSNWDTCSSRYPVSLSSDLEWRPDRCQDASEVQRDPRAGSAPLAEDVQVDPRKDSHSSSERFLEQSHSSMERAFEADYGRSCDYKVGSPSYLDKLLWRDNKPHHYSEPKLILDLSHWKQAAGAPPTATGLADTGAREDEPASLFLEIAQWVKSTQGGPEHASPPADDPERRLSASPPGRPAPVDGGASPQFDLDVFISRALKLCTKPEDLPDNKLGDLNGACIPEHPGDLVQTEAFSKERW
UniProt P49137, whole entry, looked up: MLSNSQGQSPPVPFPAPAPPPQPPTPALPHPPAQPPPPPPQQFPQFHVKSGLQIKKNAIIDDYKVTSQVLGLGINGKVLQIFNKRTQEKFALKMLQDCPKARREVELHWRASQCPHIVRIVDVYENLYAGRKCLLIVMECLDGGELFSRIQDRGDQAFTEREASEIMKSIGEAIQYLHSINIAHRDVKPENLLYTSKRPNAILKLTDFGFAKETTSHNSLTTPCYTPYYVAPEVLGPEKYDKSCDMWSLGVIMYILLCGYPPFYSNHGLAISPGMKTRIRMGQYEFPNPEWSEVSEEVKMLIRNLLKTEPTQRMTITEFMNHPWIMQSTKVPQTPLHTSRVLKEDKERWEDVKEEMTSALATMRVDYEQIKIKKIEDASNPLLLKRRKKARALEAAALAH
UniProt Q16620, whole entry, looked up: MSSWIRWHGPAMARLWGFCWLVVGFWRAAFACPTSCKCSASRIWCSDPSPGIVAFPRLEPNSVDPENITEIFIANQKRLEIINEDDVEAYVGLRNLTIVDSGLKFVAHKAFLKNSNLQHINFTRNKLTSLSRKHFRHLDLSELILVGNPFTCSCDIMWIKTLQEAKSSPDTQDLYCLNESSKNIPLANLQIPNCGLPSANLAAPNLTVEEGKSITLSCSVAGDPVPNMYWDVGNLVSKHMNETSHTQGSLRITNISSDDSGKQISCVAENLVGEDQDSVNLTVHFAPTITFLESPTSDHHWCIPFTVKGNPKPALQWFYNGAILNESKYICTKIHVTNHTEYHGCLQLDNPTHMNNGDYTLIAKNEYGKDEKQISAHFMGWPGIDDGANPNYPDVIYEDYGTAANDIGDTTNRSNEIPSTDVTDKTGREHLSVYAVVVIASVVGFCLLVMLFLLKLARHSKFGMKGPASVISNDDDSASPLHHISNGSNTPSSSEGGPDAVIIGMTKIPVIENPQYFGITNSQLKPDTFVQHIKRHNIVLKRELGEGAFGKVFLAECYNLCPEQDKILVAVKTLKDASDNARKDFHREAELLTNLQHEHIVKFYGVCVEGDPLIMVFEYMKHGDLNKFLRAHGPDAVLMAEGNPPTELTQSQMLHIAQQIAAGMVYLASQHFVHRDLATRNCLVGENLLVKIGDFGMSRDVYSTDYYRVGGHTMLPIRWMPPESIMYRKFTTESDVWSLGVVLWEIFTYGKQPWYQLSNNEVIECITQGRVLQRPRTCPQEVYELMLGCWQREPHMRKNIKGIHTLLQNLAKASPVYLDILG

Key:
Assay in all cases: number of time points (of 5) at which kinase-Nluc abundance scored as decreased, DMSO-normalised (count); higher = more persistent destabilization
Settings in all cases: K562; 2-18 h
FLT3 = FLT3 (UniProt P36888)
FYN = FYN (UniProt P06241)
GSK3A = GSK3A (UniProt P49840)
HER2 = HER2 (UniProt P04626)
INSRR = INSRR (UniProt P14616)
IRAK3 = IRAK3 (UniProt Q9Y616)
JAK1 = JAK1 (UniProt P23458)
LCK = LCK (UniProt P06239)
LIMK1 = LIMK1 (UniProt P53667)
LIMK2 = LIMK2 (UniProt P53671)
LMTK2 = LMTK2 (UniProt Q8IWU2)
LYN = LYN (UniProt P07948)
MAP2K1 = MAP2K1 (UniProt Q02750)
MAP2K2 = MAP2K2 (UniProt P36507)
MAP4K2 = MAP4K2 (UniProt Q12851)
MAPK1 = MAPK1 (UniProt P28482)
MAPK4 = MAPK4 (UniProt P31152)
MAPKAPK2 = MAPKAPK2 (UniProt P49137)
MKNK1 = MKNK1 (UniProt Q9BUB5)
NTRK2 = NTRK2 (UniProt Q16620)

Measured: number of time points

CC(C)Cn1cc(C#N)c2cc(Oc3ccc(NC(=O)[C@@H]4CCCN4)cc3)ccc21 (10 µM)
0: all assays above

OCCC#Cc1nc(-c2ccc(F)cc2)c(-c2ccncc2)n1CCCc1ccccc1 (2.5 µM)
0: all assays above

COc1cccc2cc(-c3nc([C@H]4CC[C@H](C(=O)O)CC4)n4ncnc(N)c34)[nH]c12 (2.5 µM)
2: FLT3
3: INSRR | IRAK3 | LIMK1 | LIMK2 | NTRK2
0: all other assays above

COC(=O)/C=C/c1ccc(O)c(OC)c1 [Ferulic acid methyl ester] (10 µM)
0: all assays above

2 records drawn at random from the list so far, as already listed:
CC(C)Cn1cc(C#N)c2cc(Oc3ccc(NC(=O)[C@@H]4CCCN4)cc3)ccc21 (10 µM)
0: all assays above

OCCC#Cc1nc(-c2ccc(F)cc2)c(-c2ccncc2)n1CCCc1ccccc1 (2.5 µM)
0: all assays above

The list goes on:

C[C@@H]1O[C@@H](O[C@H]2[C@H](OC(=O)[C@]34CCC(C)(C)C[C@H]3C3=CC[C@@H]5[C@@]6(C)C[C@H](O)[C@H](O[C@@H]7O[C@H](CO)[C@@H](O)[C@H](O)[C@H]7O)C(CO)(CO)[C@@H]6CC[C@@]5(C)[C@]3(C)C[C@H]4O)OC[C@H](O)[C@@H]2O)[C@H](O)[C@H](O)[C@H]1O[C@@H]1OC[C@@H](O)[C@H](O[C@@H]2OC[C@](O)(CO)[C@H]2O)[C@H]1O [Platycodin D] (10 µM)
0: all assays above

O=C(Nc1ncc(SCCN2CCCC2)s1)[C@]1(c2ccc(S(=O)(=O)C3CC3)cc2)C[C@H]1C1CCCCC1 [Globalagliatin] (2.5 µM)
0: all assays above

Cc1cc([N+](=O)[O-])c(NS(=O)(=O)c2cccc(C(=O)O)c2)cc1-c1cccnc1 [Alofanib] (10 µM)
0: all assays above

O=C1C(=Cc2ccc(O)c(O)c2)Oc2ccccc21 (2.5 µM)
0: all assays above

CCOc1cc(C(=O)N2CCC(N3CCN(C)CC3)CC2)ccc1Nc1ncc2c(n1)N(S(C)(=O)=O)c1ccccc1C(=O)N2C (10 µM)
0: all assays above

CCC(=O)N1CC[C@H](Nc2ncnc3c2CN(c2cnc(OC)c(C(F)(F)F)c2)CC3)C1 [Leniolisib] (10 µM)
0: all assays above

O=c1cc(-c2ccc(O)cc2)oc2cc(O)c(O)c(O)c12 [Scutellarein] (10 µM)
0: all assays above

COc1cc2nccc(Oc3ccc(NC(=O)Nc4ccc(F)cc4F)c(F)c3)c2cc1OC (10 µM)
1: INSRR
2: HER2 | LIMK1
0: all other assays above

N#Cc1cn([C@@H]2O[C@H](CO)[C@@H](O)[C@H]2O)c2nc[nH]c(=O)c12 [Jaspamycin] (10 µM)
0: all assays above

Cc1cc(Nc2ncc(Cl)c(Nc3ccccc3S(=O)(=O)C(C)C)n2)c(OC(C)C)cc1C1CCN(CC(=O)NCCNc2cccc3c2C(=O)N(C2CCC(=O)NC2=O)C3=O)CC1 (stereo not given) (10 µM)
0: all assays above

O=C(N/N=C/c1ccc([N+](=O)[O-])o1)c1ccc(O)cc1 [Nifuroxazide] (10 µM)
2: LIMK1 | LYN
3: FLT3 | FYN | JAK1 | LIMK2 | LMTK2 | MKNK1
1: HER2 | INSRR | IRAK3 | NTRK2
0: all other assays above

C[C@@H]1CN(CC(=O)Nc2ccc3c(c2)Cc2cccc(-c4cc(=O)cc(N5CCOCC5)o4)c2S3)C[C@H](C)O1 (2.5 µM)
0: all assays above

C=CC(=O)Nc1cc(C(=O)NC)cc(-c2n[nH]c3ccccc23)c1 (10 µM)
2: HER2
1: LMTK2
0: all other assays above

CC(=O)NCC(=O)N[C@@H](C)C(=O)N[C@@H](CCC(N)=O)C(=O)N[C@@H](Cc1ccccc1)C(=O)N[C@@H](CO)C(=O)N[C@@H](CCCCN)C(=O)N[C@H](C(=O)N[C@@H](C)C(=O)N[C@@H](C)C(=O)N[C@@H](CCCCN)C(=O)O)[C@@H](C)O (10 µM)
0: all assays above

Cc1c(C(=O)Nc2ccc(Oc3ccnc4cc(OCC(C)(C)O)ccc34)c(F)c2)c(=O)n(-c2ccccc2)n1C [Ningetinib Tosylate] (10 µM)
1: GSK3A | LIMK2 | MAPK4
3: FYN
2: HER2 | INSRR | LIMK1
0: all other assays above

C=CC(=O)N[C@H]1CCOC[C@H]1Nc1ncc2cc(-c3c(Cl)c(OC)cc(OC)c3Cl)ccc2n1 [Fisogatinib] (10 µM)
0: all assays above
